Earlier results, collected in US20240293404A1, “SALT AND CRYSTAL FORMS OF AN EPIDERMAL GROWTH FACTOR RECEPTOR INHIBITOR” (Blueprint Medicines Corporation, priority 2021, published 2024).
Some entries share one result that the patent states for a list of compounds.

Tested on: EGFR mutant NSCLC (EGFR M+)
Settings: EGFR M+ NSCLC patients treated first line (1L); cited from earlier work

Structure (SMILES): C=CC(=O)Nc1cc(Nc2nccc(-c3cn(C)c4ccccc34)n2)c(OC)cc1N(C)CCN(C)C [osimertinib]
- objective response rate (ORR): 60-85%
